{"source": "paper PMC6016232", "binders": {"B1": {"name": "SkpA (protein, UniProt Q5BAX8 1-161)", "chain": "MAEKMLVMTSNDGKNIEVPRDVAERSLLIKNMLEDLGDPTEPIPIPNVSENVLSKVLEWCAHHRNDPPSSADDDDSRRKTTDIEEWDQKFMQVDQEMLFEIILAANYLDIKPLLDIGCKTVANMIKGKSPEEIRKTFNIQNDFTPEEEDQIRRENEWAEDR"}}, "biological_target": "Fbx23::TAP (Aspergillus nidulans)", "test": "affinity purification with mass spectrometry; Fbx23::TAP tandem affinity purification, LC-MS/MS; strains grown 24 h in 1% xylan, then glucose to 2% for 5, 10, 15 and 30 min; untagged strain as negative control, unspecific interactions subtracted", "note": "These are yes or no findings as the source states them, for the method shown. Binding seen in cells or lysates may run through a third protein. Here binding means that the protein was enriched with, or labelled near, the bait; the list need not be complete.", "data": [{"binder": "B1", "values": [{"measurement": "binding", "value": "binds"}]}]}
